From the supplement of paper PMC10849652 come the findings set out here.

Chains of the proteins cited; added tags and fusions are not shown. Lines headed by an entry give the natural chain unless they say otherwise; changes in a name come on top.
UniProt Q9H6Z4: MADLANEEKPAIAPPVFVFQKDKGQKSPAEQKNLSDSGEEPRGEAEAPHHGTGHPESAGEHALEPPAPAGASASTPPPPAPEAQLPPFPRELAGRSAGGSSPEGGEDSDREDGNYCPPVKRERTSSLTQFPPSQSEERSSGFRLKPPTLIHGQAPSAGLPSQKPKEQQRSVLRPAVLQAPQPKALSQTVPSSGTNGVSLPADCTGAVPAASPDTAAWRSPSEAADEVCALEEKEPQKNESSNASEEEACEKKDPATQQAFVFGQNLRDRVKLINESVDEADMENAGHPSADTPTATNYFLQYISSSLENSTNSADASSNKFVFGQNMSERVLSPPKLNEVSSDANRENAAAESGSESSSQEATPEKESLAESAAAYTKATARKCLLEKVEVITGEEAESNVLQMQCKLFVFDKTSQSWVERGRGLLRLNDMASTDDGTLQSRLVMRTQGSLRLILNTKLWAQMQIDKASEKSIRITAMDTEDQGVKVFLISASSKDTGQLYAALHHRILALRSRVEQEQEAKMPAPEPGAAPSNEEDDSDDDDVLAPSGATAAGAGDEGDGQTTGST
UniProt Q9H974: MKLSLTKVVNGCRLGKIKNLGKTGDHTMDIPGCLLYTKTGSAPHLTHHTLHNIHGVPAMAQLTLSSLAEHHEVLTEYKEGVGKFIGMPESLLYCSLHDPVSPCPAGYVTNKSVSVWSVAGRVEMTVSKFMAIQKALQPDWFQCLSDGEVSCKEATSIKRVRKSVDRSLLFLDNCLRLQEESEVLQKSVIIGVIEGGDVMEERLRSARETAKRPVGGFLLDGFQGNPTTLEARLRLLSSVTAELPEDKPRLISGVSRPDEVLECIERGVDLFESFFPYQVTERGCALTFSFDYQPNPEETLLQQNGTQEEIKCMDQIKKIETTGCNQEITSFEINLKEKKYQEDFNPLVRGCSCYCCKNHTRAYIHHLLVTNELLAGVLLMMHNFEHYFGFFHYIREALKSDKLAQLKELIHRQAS
UniProt P11234: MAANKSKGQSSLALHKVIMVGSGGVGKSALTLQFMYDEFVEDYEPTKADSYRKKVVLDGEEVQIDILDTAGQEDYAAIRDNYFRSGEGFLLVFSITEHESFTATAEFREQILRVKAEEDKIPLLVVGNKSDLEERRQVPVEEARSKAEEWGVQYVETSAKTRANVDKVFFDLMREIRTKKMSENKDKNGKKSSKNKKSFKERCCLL
UniProt Q92696: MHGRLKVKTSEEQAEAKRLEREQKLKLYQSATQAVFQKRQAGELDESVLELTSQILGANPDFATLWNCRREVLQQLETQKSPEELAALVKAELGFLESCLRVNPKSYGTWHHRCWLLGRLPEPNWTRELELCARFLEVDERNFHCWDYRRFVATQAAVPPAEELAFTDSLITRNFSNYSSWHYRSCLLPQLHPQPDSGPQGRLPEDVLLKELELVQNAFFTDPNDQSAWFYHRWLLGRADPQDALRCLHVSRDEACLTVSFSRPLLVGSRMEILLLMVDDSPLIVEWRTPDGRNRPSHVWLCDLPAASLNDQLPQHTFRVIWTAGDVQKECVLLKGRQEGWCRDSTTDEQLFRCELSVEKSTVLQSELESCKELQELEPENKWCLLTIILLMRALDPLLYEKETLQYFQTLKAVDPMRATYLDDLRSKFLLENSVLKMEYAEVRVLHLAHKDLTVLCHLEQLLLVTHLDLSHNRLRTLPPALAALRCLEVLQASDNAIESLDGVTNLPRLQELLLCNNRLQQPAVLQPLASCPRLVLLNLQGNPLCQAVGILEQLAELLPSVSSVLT
UniProt Q9H082: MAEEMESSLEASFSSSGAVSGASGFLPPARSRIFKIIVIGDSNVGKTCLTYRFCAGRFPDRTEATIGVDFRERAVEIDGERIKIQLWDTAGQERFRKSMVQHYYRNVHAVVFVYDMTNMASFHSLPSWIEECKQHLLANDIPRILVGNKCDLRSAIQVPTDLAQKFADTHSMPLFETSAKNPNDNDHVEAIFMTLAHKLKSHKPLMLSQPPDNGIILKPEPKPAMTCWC
UniProt O00194: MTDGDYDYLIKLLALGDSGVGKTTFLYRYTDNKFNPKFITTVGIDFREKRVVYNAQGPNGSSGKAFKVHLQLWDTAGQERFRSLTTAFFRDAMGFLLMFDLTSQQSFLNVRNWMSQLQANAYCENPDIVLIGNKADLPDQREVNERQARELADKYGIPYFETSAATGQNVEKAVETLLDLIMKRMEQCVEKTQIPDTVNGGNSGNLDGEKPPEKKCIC
UniProt Q9Y3L5: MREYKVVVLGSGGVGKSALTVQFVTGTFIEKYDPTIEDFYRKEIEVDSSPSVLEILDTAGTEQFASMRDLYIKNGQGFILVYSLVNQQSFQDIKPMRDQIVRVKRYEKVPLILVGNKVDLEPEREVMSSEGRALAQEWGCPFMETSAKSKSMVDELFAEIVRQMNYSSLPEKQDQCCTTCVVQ
UniProt Q9Y620: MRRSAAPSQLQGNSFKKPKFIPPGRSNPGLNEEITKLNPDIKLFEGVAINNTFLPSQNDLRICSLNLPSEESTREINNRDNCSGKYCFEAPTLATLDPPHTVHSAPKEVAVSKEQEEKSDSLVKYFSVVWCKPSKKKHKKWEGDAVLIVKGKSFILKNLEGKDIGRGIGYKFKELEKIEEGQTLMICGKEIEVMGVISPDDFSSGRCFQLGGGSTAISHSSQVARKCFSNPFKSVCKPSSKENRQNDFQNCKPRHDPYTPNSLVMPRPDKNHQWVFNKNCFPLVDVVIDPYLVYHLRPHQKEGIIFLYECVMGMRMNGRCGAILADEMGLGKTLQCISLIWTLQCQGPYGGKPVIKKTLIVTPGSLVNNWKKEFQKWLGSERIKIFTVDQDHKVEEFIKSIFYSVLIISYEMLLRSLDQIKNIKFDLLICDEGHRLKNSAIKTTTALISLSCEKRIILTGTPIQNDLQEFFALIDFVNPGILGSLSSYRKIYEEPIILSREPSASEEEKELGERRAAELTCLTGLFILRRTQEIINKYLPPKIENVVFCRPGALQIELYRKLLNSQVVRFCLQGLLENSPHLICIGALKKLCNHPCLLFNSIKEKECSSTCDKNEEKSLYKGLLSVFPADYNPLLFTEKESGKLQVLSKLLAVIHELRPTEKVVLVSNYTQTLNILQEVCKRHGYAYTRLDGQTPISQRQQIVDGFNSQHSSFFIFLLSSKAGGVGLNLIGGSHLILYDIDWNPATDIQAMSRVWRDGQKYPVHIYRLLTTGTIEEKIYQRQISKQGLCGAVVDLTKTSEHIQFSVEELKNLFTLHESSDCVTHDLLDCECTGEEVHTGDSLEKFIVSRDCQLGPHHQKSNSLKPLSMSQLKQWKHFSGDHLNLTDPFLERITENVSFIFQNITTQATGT
UniProt O75771: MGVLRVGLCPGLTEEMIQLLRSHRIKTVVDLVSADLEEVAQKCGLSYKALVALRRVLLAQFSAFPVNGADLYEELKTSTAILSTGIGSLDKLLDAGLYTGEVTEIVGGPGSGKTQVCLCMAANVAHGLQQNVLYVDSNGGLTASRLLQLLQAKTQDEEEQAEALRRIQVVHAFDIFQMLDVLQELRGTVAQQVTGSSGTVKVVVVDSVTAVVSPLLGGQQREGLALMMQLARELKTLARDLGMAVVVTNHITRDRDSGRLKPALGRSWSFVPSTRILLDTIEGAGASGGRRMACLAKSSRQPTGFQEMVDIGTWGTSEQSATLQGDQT
UniProt Q86YS3: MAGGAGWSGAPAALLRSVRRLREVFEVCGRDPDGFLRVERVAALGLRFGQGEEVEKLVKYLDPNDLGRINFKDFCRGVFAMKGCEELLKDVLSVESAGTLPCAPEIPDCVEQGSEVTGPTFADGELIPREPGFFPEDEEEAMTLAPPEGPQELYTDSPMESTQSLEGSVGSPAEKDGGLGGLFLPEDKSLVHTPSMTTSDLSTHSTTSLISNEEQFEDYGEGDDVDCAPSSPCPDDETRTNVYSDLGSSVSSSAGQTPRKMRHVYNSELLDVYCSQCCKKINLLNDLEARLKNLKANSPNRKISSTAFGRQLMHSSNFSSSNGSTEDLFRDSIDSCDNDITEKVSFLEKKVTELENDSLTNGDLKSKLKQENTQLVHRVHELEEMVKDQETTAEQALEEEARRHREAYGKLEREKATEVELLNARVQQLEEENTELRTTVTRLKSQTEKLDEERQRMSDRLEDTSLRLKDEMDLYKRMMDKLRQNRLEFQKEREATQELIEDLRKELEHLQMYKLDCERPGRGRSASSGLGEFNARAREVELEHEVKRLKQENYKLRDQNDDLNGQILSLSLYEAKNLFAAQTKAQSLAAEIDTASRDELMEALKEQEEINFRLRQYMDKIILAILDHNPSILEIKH
UniProt Q9BUV8: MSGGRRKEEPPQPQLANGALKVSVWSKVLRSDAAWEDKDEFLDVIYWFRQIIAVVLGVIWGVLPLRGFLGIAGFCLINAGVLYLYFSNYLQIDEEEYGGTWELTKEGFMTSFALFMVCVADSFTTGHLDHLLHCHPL
UniProt O75943: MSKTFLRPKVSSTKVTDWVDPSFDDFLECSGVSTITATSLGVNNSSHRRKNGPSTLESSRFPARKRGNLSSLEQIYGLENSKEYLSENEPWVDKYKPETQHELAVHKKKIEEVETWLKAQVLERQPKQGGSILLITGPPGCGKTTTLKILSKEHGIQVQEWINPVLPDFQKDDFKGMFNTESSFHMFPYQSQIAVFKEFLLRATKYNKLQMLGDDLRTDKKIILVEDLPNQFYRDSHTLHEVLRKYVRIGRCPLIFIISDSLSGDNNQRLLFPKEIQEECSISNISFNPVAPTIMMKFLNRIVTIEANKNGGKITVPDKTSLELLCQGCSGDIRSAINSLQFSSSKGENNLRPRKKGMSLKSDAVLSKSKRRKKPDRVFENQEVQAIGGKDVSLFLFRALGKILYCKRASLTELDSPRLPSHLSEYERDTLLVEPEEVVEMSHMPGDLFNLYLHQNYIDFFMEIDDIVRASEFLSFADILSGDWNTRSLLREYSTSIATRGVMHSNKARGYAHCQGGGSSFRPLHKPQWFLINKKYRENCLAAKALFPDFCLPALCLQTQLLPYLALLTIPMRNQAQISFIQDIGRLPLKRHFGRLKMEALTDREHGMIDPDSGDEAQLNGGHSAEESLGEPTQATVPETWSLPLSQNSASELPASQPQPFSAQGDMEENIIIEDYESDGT
UniProt Q53S08: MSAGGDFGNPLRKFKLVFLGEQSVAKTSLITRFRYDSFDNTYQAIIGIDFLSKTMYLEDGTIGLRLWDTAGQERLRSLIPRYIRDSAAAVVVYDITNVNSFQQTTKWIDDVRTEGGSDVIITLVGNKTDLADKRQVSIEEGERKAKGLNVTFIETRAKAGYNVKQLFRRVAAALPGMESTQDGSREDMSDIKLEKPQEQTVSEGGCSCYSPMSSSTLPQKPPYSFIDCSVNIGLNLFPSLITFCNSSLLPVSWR

This is one part of the list.

Compound in the assay: NCC(=O)Nc1ccc(-n2nc(C(F)(F)F)cc2-c2ccc3c(ccc4ccccc43)c2)cc1
As to the kind of experiment: log2 fold change, soluble protein after heating vs DMSO (PISA); higher = thermal stabilisation; K562 lysate, 10 uM; active = over 0.2 and 3.5 SD of the protein, either way, in both replicates (recomputed). The method, boiled down: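 Quantification was by TMTpro 16plex LC-MS/MS with equalised channel sums, applied to the supernatant after 21,000xg for 90 min. Samples were crude K562 extract at 1 mg/mL protein in PBS pH 7.4 with 1 mM MgCl2, treated with 10 μM compound for 30 min, heated for 3 min across 48°C-58°C, pooled and brought to 0.5% NP-40 at 4°C. Values are log-two fold changes in thermal stability relative to solvent controls, from duplicates.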
Regarding RANBP3 isoform 2 (UniProt Q9H6Z4), the log2 fold change was inactive: 0.203. Then QTRT2 isoform 4 (UniProt Q9H974), with inactive: 0.004; and RALB isoform 2 (UniProt P11234), with inactive: -0.003.

Regarding RABGGTA (UniProt Q92696), the log2 fold change was inactive: -0.02.

Regarding RAB33B (UniProt Q9H082), the log2 fold change is inactive: 0.074.

With RACK1 (UniProt D6RF23), the log2 fold change was inactive: 0.004.

In the case of RAB27B (UniProt O00194), the log2 fold change is inactive: -0.001.

In the case of RAP2C (UniProt Q9Y3L5), the log2 fold change is inactive: 0.089.

RAD54B (UniProt Q9Y620): the log2 fold change is inactive: -0.142. Then RAD51D (UniProt O75771), with inactive: 0.012; and RAB11FIP4 (UniProt Q86YS3), with inactive: 0.035; and RAB5IF isoform 5 (UniProt Q9BUV8), with inactive: -0.039. Then RAD17 (UniProt O75943), with inactive: -0.044. Consider RAB6D (UniProt Q53S08), for which the log2 fold change was inactive: -0.012.
